PubChem BioAssay AID493014 (National Center for Advancing Translational Sciences (NCATS), 2011)
Some of the results follow. Further columns of the screen follow, without active or inactive calls. Compounds called inactive in the main read-out are mostly missing here. The note in brackets gives the kind of curve behind each potency; many fits are weak.

Experiment: qHTS Assay to Find Inhibitors of Chronic Active B-Cell Receptor Signaling
Conditions: ABC-DLBCL IkBa-CBG/CBR reporter, luminescence ratio (green luciferase fused to IkBa over red control in TMD8 lymphoma cells), 4 h
Method in brief: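 Cell line TMD8 (human ABC DLBCL), stably expressing tet-inducible CBG68-IkBa fusion and CBR; IMDM/0.5% FBS; cpd up to 46 uM; dox induction, 4 h, 37C/5% CO2; dual luminescence; green/red ratio; MG132 control.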

[1] = measured here: CBR red luminescence, cell number
[2] = measured here: IkBa-CBG green luminescence

COc1ccc(CSc2nnc(C)n2N)cc1Br
AC50 [1]: 12.6 µM [rising, single point]

O=C(CNc1ccc(F)cc1Cl)Nc1cccc(S(=O)(=O)N2CCCCC2)c1
AC50 [1]: 16.4 µM [falling, single point]
AC50 [2]: 20.6 µM [rising, partial curve, poor fit]

COCCN1CCn2c(nc3cc(Nc4nnc(C)c5ccccc45)ccc32)C1
AC50 [1]: 35.5 µM [falling, single point]

CCCCN(CC)C(=O)Cc1ccc(Br)cc1
AC50 [1]: 32.6 µM [rising, single point]

CN(c1ccccc1)c1ccc(/C=C/[N+](=O)[O-])cc1
AC50 [1]: 29.1 µM [falling, single point]
AC50 [2]: 23.1 µM [rising, partial curve, poor fit]

CSc1nsc(/C=C/Nc2ccc(C(=O)O)cc2)c1C#N
AC50 [1]: 35.5 µM [falling, single point]

O=[N+]([O-])c1ccc(C2=NN(c3ccccc3)C(c3ccco3)C2)cc1 (stereo unspecified)
AC50 [1]: 3.98 µM [rising, partial curve]

O=c1nc2sc3ccccc3n2c(=O)n1-c1ccc(Cl)cc1
AC50 [1]: 1.12 µM [falling, full curve]

CCCCC(=O)Nc1ccc(Br)cn1
AC50 [1]: 23.1 µM [falling, single point]

COc1ccc2nc(SCC(=O)Nc3ccccc3C)[nH]c2c1
AC50 [1]: 7.94 µM [falling, partial curve]

CCc1c(C)sc2nc(SCC(=O)Nc3cc(C)on3)n(CCOC)c(=O)c12
AC50 [1]: 29.1 µM [rising, single point]

C[C@H](CO)N1C[C@H](C)[C@@H](CN(C)C(=O)Nc2ccc3c(c2)OCO3)Oc2c(NC(=O)Nc3ccc(C(F)(F)F)cc3)cccc2C1=O
AC50 [1]: 29.1 µM [falling, single point]

O=C(Nc1ccncc1)Nc1ccccc1Cl
AC50 [1]: 10 µM [falling, partial curve, poor fit]

CCCOc1ccc(-c2c(C(=O)N/N=C/c3ccc(C)o3)nnn2-c2nonc2N)cc1
AC50 [1]: 7.94 µM [falling, partial curve]

COc1ccc(CC(=O)Oc2cc(C)ccc2C)cc1
AC50 [1]: 35.5 µM [rising, single point]

COc1cc(OC)cc(C(=O)Oc2ccc(/C=N/Nc3nc4ccccc4s3)cc2OC)c1
AC50 [1]: 0.103 µM [rising, full curve]

CC(C)Sc1nnc(NC(=O)c2ccco2)s1
AC50 [1]: 6.31 µM [falling, partial curve, poor fit]

O=C(CC(=O)Nc1ccccc1F)Nc1ccccc1F
AC50 [1]: 5.01 µM [rising, partial curve, poor fit]

Cc1cccc(-c2noc(CN(C)S(=O)(=O)c3cc(Cl)ccc3Cl)n2)c1
AC50 [1]: 8.2 µM [rising, partial curve, poor fit]

COc1ccc(/C=C2\SC(=S)N(CCC(=O)Nc3ccc(C(=O)O)cc3)C2=O)cc1OC
AC50 [1]: 3.98 µM [falling, full curve]

CC(=O)NC1(c2nnnn2CCOC(=O)Nc2ccc(Cl)cc2)CCCCC1
AC50 [1]: 10 µM [rising, partial curve]

CC(C)COc1nc2ccccc2c(=O)n1OCC(=O)O
AC50 [1]: 5.17 µM [rising, partial curve, poor fit]

O=C(NCc1ccc(Cl)cc1)C1CCCCN1S(=O)(=O)c1ccccc1 (stereo unspecified)
AC50 [1]: 35.5 µM [falling, single point]

COc1cc(C2C3=C(CC(C)(C)CC3=O)N(C)C3=C2C(=O)CC(C)(C)C3)ccc1O
AC50 [1]: 6.31 µM [falling, single point]

COc1ccc(C(=O)Nc2cccnc2Sc2ccc(Cl)cc2)cc1
AC50 [1]: 6.31 µM [falling, full curve, poor fit]

O=C(NC(=S)Nc1cccc2c(O)cccc12)c1ccco1
AC50 [1]: 0.282 µM [falling, full curve, poor fit]

CC(=O)c1ccc(-n2c(=O)[nH]c(=O)c3c(N)c(C(=O)c4ccc(Cl)cc4)sc32)cc1
AC50 [1]: 0.562 µM [rising, full curve]

O=C1/C(=C/c2ccccc2)SC(=S)N1CCCC(=O)N1CCCCC1CCO (stereo unspecified)
AC50 [1]: 5.62 µM [falling, full curve]

CC(C)(CO)NC(=O)C(Cc1ccccc1)N1C(=O)c2ccccc2C1=O (stereo unspecified)
AC50 [1]: 10 µM [rising, partial curve, poor fit]

Cc1occc1C(=O)NNC(=O)c1nn(C)c(=O)c2ccccc12
AC50 [1]: 11.2 µM [falling, partial curve, poor fit]

Cc1cc(-c2ccc(/C=N/n3cnnc3)o2)ccc1Cl
AC50 [1]: 8.2 µM [rising, partial curve, poor fit]

COc1ccc(C2C(C(=O)N3CCN(c4ccccn4)CC3)CCC(=O)N2c2ccc(OC)cc2)cc1 (stereo unspecified)
AC50 [1]: 35.5 µM [falling, single point]

COc1cc(OC)cc(C(=O)Nc2ccc(C(=O)c3ccncc3)cc2)c1
AC50 [1]: 6.31 µM [falling, single point]

CC1CCN(c2nnc(-c3cccs3)c3ccccc23)CC1
AC50 [1]: 7.31 µM [rising, partial curve, poor fit]

CC1CCC(n2c(=S)[nH]c3ccccc3c2=O)CC1 (stereo unspecified)
AC50 [1]: 15.8 µM [rising, partial curve, poor fit]
AC50 [2]: 11.2 µM [falling, partial curve]

CCOc1ccc(NC(=O)Cc2ccccc2)cc1
AC50 [1]: 0.92 µM [rising, full curve, poor fit]

CCN(CC)c1ccc(C=Nc2ccc(N(C)C)cc2)c(O)c1
AC50 [1]: 11.6 µM [falling, partial curve, poor fit]

O=C(C1=C[C@@H](c2ccc(C(F)(F)F)cc2)C[C@@H](OCc2ccc(CO)cc2)O1)N1CCN(Cc2ccccc2)CC1
AC50 [1]: 35.5 µM [falling, single point]

O=C(/C=C/c1ccccc1Cl)NCCc1ccc(F)cc1
AC50 [1]: 29.1 µM [falling, single point]

Cc1ccc(NC(=O)c2ccc(Nc3c([N+](=O)[O-])cc([N+](=O)[O-])cc3[N+](=O)[O-])cc2)cc1
AC50 [1]: 9.2 µM [falling, partial curve]
AC50 [2]: 10.3 µM [rising, partial curve, poor fit]

C=CCN1C(=O)/C(=N/n2cnnc2)c2ccccc21
AC50 [1]: 35.5 µM [rising, single point]

Cc1ccc(N(Cc2ccc(C(=O)NN=C3CCN(C)CC3)cc2)S(C)(=O)=O)cc1C
AC50 [1]: 16.4 µM [falling, partial curve, poor fit]

Cc1c(/C=C/C(=O)c2ccc(C(C)C)cc2)cnn1C
AC50 [1]: 0.316 µM [rising, full curve, poor fit]

CC(=O)Nc1ccc(-n2c(C)nc(=O)c(-c3ccccc3)c2C)cc1
AC50 [1]: 1.64 µM [rising, partial curve, poor fit]

O=C(c1ccc(Cl)c(Cl)c1)c1cc(-c2ccccn2)c(N2CCOCC2)s1
AC50 [1]: 0.794 µM [falling, full curve]

COc1ccc(OCC2c3cc(OC)c(OC)cc3CCN2C(=O)c2c(F)cccc2F)cc1 (stereo unspecified)
AC50 [1]: 0.708 µM [rising, partial curve, poor fit]

CCOc1cc(C2C(C#N)=C(N)Oc3n[nH]c(-c4ccccc4)c32)ccc1O (stereo unspecified)
AC50 [1]: 12.6 µM [falling, partial curve]

O=C(CCc1nc2ccccc2s1)OCC(=O)c1ccc[nH]1
AC50 [1]: 11.2 µM [rising, partial curve, poor fit]

COc1ccc(-c2c(-c3ccc(O)cc3O)n[nH]c2C(F)(F)F)cc1
AC50 [1]: 12.6 µM [falling, partial curve, poor fit]

CCOC(=O)C1CCN(CCC(=O)Nc2cccc(Cl)c2)CC1
AC50 [1]: 6.31 µM [falling, partial curve, poor fit]

Cc1c(C(=O)Nc2ccc(S(=O)(=O)N(C)C3CCN(C)CC3)cc2)oc2ccccc12
AC50 [1]: 25.9 µM [falling, single point]

CN(C)c1cc(-c2ccc([N+](=O)[O-])cc2)oc(=O)c1Cl
AC50 [1]: 3.55 µM [falling, single point]

COc1cccc(CN2c3ccc(Br)cc3C(=O)CS2(=O)=O)c1
AC50 [2]: 8.2 µM [falling, partial curve, poor fit]

C=CCn1c(=O)c2ccccc2n2c(SCC(=O)Nc3cc(C)on3)nnc12
AC50 [1]: 23.1 µM [rising, single point]

N/C(=N\OC(=O)c1ccccc1F)c1cccc([N+](=O)[O-])c1
AC50 [1]: 0.562 µM [rising, full curve, poor fit]

CCN1CCN(c2nc(Nc3cccc(C)c3)nc(N)c2[N+](=O)[O-])CC1
AC50 [1]: 0.517 µM [rising, full curve]

O=S(=O)(NCc1csc(-c2cccs2)n1)c1cccs1
AC50 [1]: 3.98 µM [rising, partial curve, poor fit]

CC(C)OCCCNC(=S)Nc1ccc(S(N)(=O)=O)cc1
AC50 [1]: 1.84 µM [falling, partial curve, poor fit]

O=C(O)CCC(=O)c1ccc2c(c1)CCCC2
AC50 [1]: 11.2 µM [falling, partial curve]

Cc1ccccc1OCc1nc2ccccc2c(=O)n1/N=C/c1cn[nH]c1-c1ccc(Br)cc1
AC50 [1]: 6.51 µM [rising, full curve]

OCc1nc2nc(Cl)c(Cl)nc2[nH]1
AC50 [1]: 10 µM [falling, partial curve]

C/C(N)=C(/C#N)C(=O)CSc1nc2cc(Cl)ccc2c(=O)n1Cc1ccco1
AC50 [1]: 8.91 µM [falling, partial curve]
